In patent US20170042193A1, “Pet Food Compositions Having Antimicrobial Activity” (priority 2010, published 2017):
Some of these results come from one statement about several compounds together.

System: Salmonella (S. aarhus, S. muenster E1 and S. worthington)
Assay type: cell-based
Conditions: 10^3 and 10^6 cfu/g Salmonella
Procedure: The minimum inhibitory concentration (MIC) of an antimicrobial ingredient is defined as the maximum dilution of the product that will still inhibit the growth of Salmonella. Serial dilutions (0-3%, except for oregano 0-0.3%) were made of the AMI in bacterial growth media and poured in test tubes. The test organisms (S. aarhus, S. muenster E1 and S. worthington) were then added to the dilutions of the AMI ingredients to a final concentration of 10^6 or 10^3 cfu/g, incubated overnight at 30° C., and scored for growth by turbidity or plate counts.
Minimum Inhibitory Concentration was conducted for 10^3 and 10^6 cfu/g Salmonella. Results reported as negative sign means inhibition, while positive sign denotes growth.

## CCC(=O)O [Propionic Acid]
  MIC needed to inhibit Salmonella: at least 0.9%
